Assay [1] concerns the target T1, WBP4, endogenous in IEC-18 rat intestinal epithelial cells (rat (endogenous in IEC-18)) (UniProt Q5HZF2).
T1 sequence: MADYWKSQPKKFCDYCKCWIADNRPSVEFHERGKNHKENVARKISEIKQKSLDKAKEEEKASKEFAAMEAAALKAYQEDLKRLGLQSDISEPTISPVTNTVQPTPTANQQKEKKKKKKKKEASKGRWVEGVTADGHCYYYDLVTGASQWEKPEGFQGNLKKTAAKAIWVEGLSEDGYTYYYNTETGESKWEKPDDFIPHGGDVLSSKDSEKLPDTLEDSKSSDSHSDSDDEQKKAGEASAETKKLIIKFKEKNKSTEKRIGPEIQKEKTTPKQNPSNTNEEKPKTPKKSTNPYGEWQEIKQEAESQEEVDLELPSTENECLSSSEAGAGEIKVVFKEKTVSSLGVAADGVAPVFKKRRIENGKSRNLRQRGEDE
Briefly: co-IP; anti-WBP4 immunoprecipitation of cytosolic extracts of cells co-treated with 1,25D3 and ZK, VDR immunoblot; rabbit IgG as negative control. For orientation: Immunoblotting shows a protein as a band on a membrane.

The target of assay [2] is T1, WBP4, endogenous in IEC-18 rat intestinal epithelial cells (rat (endogenous in IEC-18)). Briefly: co-IP; anti-WBP4 immunoprecipitation of cytosolic extracts of cells in basal conditions (vehicle), VDR immunoblot.
Assay [3] addresses T2, WBP4, endogenous in FB-789 human fibroblasts (human (endogenous in FB-789)) (UniProt O75554).
T2 sequence: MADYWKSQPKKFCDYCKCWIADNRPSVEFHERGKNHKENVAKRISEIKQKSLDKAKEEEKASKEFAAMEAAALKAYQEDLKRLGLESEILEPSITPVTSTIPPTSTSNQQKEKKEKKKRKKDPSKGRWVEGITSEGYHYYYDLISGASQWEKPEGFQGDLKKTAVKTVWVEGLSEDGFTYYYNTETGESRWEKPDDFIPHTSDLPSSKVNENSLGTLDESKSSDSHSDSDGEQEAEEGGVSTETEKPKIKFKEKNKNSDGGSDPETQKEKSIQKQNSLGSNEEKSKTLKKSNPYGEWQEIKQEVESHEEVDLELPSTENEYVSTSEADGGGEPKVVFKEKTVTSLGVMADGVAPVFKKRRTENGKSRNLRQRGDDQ
As to the kind of experiment: co-IP; anti-WBP4 immunoprecipitation of cytosolic extracts of cells co-treated with 1,25D3 and ZK, VDR immunoblot; rabbit IgG as negative control.

The target of assay [4] is T2, WBP4, endogenous in FB-789 human fibroblasts (human (endogenous in FB-789)). As to the kind of experiment: co-IP; anti-WBP4 immunoprecipitation of cytosolic extracts of cells in basal conditions (vehicle), VDR immunoblot.
The target of assay [5] is T3, WBP4, endogenous in mouse kidney (mouse (endogenous in kidney)) (UniProt Q61048).
T3 sequence: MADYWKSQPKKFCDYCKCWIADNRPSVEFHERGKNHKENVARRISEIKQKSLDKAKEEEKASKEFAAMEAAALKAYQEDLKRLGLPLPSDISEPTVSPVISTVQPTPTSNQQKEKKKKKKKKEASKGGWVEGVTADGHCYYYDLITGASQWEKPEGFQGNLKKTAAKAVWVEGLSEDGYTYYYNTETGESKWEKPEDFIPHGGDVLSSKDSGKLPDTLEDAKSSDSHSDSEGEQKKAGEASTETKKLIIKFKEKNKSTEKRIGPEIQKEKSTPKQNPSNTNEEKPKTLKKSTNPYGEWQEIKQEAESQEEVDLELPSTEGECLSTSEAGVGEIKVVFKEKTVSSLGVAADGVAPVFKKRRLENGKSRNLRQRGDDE
As to the kind of experiment: co-IP; anti-WBP4 immunoprecipitation of total kidney extracts of wild type mice, no co-treatment, VDR immunoblot.

Assay [6] concerns the target T3, WBP4, endogenous in mouse kidney (mouse (endogenous in kidney)). Briefly: co-IP; anti-WBP4 immunoprecipitation of total kidney extracts of wild type mice treated for 6 h with 1 µg/kg 1,25D3 and 1 µg/kg ZK, VDR immunoblot.

These are yes or no findings as the source states them, for the method shown. Binding seen in cells or lysates may run through a third protein. Some binding calls cover weakened binding; strength is not graded here.

B1: vitamin D receptor, endogenous in IEC-18 rat intestinal epithelial cells (receptor, UniProt P13053 1-423)
chain: MEATAASTSLPDPGDFDRNVPRICGVCGDRATGFHFNAMTCEGCKGFFRRSMKRKALFTCPFNGDCRITKDNRRHCQACRLKRCVDIGMMKEFILTDEEVQRKREMIMKRKEEEALKDSLRPKLSEEQQHIIAILLDAHHKTYDPTYADFRDFRPPVRMDGSTGSYSPRPTLSFSGNSSSSSSDLYTTSLDMMEPSGFSNLDLNGEDSDDPSVTLDLSPLSMLPHLADLVSYSIQKVIGFAKMIPGFRDLTSDDQIVLLKSSAIEVIMLRSNQSFTMDDMSWDCGSQDYKYDVTDVSKAGHTLELIEPLIKFQVGLKKLNLHEEEHVLLMAICIVSPDRPGVQDAKLVEAIQDRLSNTLQTYIRCRHPPPGSHQLYAKMIQKLADLRSLNEEHSKQYRSLSFQPENSMKLTPLVLEVFGNEIS
Consider B1, for which the values for the binding entry in assay [1] and in assay [2] were “binds” and “binds weakly”, respectively.

B2: vitamin D receptor, endogenous in FB-789 human fibroblasts (receptor, UniProt P11473 1-427)
chain: MEAMAASTSLPDPGDFDRNVPRICGVCGDRATGFHFNAMTCEGCKGFFRRSMKRKALFTCPFNGDCRITKDNRRHCQACRLKRCVDIGMMKEFILTDEEVQRKREMILKRKEEEALKDSLRPKLSEEQQRIIAILLDAHHKTYDPTYSDFCQFRPPVRVNDGGGSHPSRPNSRHTPSFSGDSSSSCSDHCITSSDMMDSSSFSNLDLSEEDSDDPSVTLELSQLSMLPHLADLVSYSIQKVIGFAKMIPGFRDLTSEDQIVLLKSSAIEVIMLRSNESFTMDDMSWTCGNQDYKYRVSDVTKAGHSLELIEPLIKFQVGLKKLNLHEEEHVLLMAICIVSPDRPGVQDAALIEAIQDRLSNTLQTYIRCRHPPPGSHLLYAKMIQKLADLRSLNEEHSKQYRCLSFQPECSMKLTPLVLEVFGNEIS
B2: the values for the binding entry in assay [3] and in assay [4] were “binds” and “binds weakly”, respectively.

B3: vitamin D receptor, endogenous in mouse kidney (receptor, UniProt P48281 1-422)
chain: MEAMAASTSLPDPGDFDRNVPRICGVCGDRATGFHFNAMTCEGCKGFFRRSMKRKALFTCPFNGDCRITKDNRRHCQACRLKRCVDIGMMKEFILTDEEVQRKREMIMKRKEEEALKDSLRPKLSEEQQHIIAILLDAHHKTYDPTYADFRDFRPPIRADVSTGSYSPRPTLSFSGDSSSNSDLYTPSLDMMEPASFSTMDLNEEGSDDPSVTLDLSPLSMLPHLADLVSYSIQKVIGFAKMIPGFRDLTSDDQIVLLKSSAIEVIMLRSNQSFTLDDMSWDCGSQDYKYDITDVSRAGHTLELIEPLIKFQVGLKKLNLHEEEHVLLMAICIVSPDRPGVQDAKLVEAIQDRLSNTLQTYIRCRHPPPGSHQLYAKMIQKLADLRSLNEEHSKQYRSLSFQPENSMKLTPLVLEVFGNEIS
As for B3, the binding result in assay [5] is listed as “binds weakly”; in assay [6], “binds”.
